For one molecule, binding results are on record in paper doi:10.1101/2022.10.13.512146.

For the assay, the target named is T1, APEX2-IκBα fusion, P25963.
T1 chain: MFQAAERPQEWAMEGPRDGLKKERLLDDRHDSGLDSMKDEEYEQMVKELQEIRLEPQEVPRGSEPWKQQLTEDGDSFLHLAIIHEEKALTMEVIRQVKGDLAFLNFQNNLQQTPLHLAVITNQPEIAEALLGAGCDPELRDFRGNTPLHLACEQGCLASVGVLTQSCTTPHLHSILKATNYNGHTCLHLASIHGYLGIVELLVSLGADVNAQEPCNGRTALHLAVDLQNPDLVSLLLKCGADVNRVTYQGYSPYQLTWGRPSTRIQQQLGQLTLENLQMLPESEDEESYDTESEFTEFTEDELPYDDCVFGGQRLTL
The assay is described as follows: proximity labelling. Particulars: remark: other sources report otherwise.

No constants are given. Whether binding was seen depends on the method and setting. Binding seen in cells or lysates may run through a third protein. A yes stands for co-enrichment or nearness to the bait. Other partners may have been found. Sequences can lack the tags named with a protein.

B1: Rel C, Q04864 1-619 (protein)
chain: MASGAYNPYIEIIEQPRQRGMRFRYKCEGRSAGSIPGEHSTDNNRTYPSIQIMNYYGKGKVRITLVTKNDPYKPHPHDLVGKDCRDGYYEAEFGQERRPLFFQNLGIRCVKKKEVKEAIITRIKAGINPFNVPEKQLNDIEDCDLNVVRLCFQVFLPDEHGNLTTALPPVVSNPIYDNRAPNTAELRICRVNKNCGSVRGGDEIFLLCDKVQKDDIEVRFVLNDWEAKGIFSQADVHRQVAIVFKTPPYCKAITEPVTVKMQLRRPSDQEVSESMDFRYLPDEKDTYGNKAKKQKTTLLFQKLCQDHVETGFRHVDQDGLELLTSGDPPTLASQSAGITVNFPERPRPGLLGSIGEGRYFKKEPNLFSHDAVVREMPTGVSSQAESYYPSPGPISSGLSHHASMAPLPSSSWSSVAHPTPRSGNTNPLSSFSTRTLPSNSQGIPPFLRIPVGNDLNASNACIYNNADDIVGMEASSMPSADLYGISDPNMLSNCSVNMMTTSSDSMGETDNPRLLSMNLENPSCNSVLDPRDLRQLHQMSSSSMSAGANSNTTVFVSQSDAFEGSDFSCADNSMINESGPSNSTNPNSHGFVQDSQYSGIGSMQNEQLSDSFPYEFFQV
For B1, the binding entry was “binds”.
